PubChem BioAssay AID1259405, NCATS – 2018
Test: 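Knock-downs that lift recombinant protein yield in hamster ovary cells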 (primary screen). System: Chinese hamster CHO-K1 ovary cells with stable secreted eGFP expression. Reagent: single siRNA against mouse genes, 0.8 pmol siRNA per well (2 µl of 400 nM stock). Duration: 3 days. Measurement: 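Percent of the per-plate non-targeting control median for intracellular GFP per well by laser scanning cytometry and for cell viability by ATP luminescence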. Scale: GFP, % of control: higher = more GFP per well, higher productivity; viability (ATP), % of control: higher = more viable cells (more ATP). Rule for the call: 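a knock-down is called active if GFP reaches 120% or more of non-targeting control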.
Here is a random part of about 50,000 deposited reagents. Of all reagents, about 4,000 (8%) are marked active. 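Mouse siRNA library applied to hamster cells; one well for each siRNA.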 Unmarked entries are inactive. The numbers tell different reagents against one gene apart.

no.	gene symbol	reagent no.	GFP, % of control	viability (ATP), % of control
1	Or4c10b (olfactory receptor family 4 subfamily C member 10B)	1	46.9	33.8
2	Or4c10b (olfactory receptor family 4 subfamily C member 10B)	2	103	88.1
3	Or4c10b (olfactory receptor family 4 subfamily C member 10B)	3	56	142
4	Cenpi (centromere protein I)	1	80.6	103
5	Cenpi (centromere protein I)	2	60.4	73.2
6	Cenpi (centromere protein I)	3	63.1	76.3
7	Slc4a9	1	107	77.9
8	Slc4a9	2	136 (active)	102
9	Slc4a9	3	39.1	60.9
10	Clps (colipase, pancreatic)	1	48	54.5
11	Clps (colipase, pancreatic)	2	108	88.5
12	Cntf (ciliary neurotrophic factor)	1	66	28.6
13	Cntf (ciliary neurotrophic factor)	2	125 (active)	92
14	Cntf (ciliary neurotrophic factor)	3	62.8	64.6
15	Whrn (whirlin)	1	41.6	38.4
16	Whrn (whirlin)	2	86.2	108
17	Tmem177 (transmembrane protein 177)	1	75.6	77.8
18	Tmem177 (transmembrane protein 177)	2	62	75.5
19	Tmem177 (transmembrane protein 177)	3	68.8	65.4
20	Mapk7 (mitogen-activated protein kinase 7)	1	71.4	75.7
21	Trf (transferrin)	1	102	118
22	Trf (transferrin)	2	44.5	32.7
23	Trf (transferrin)	3	77.5	77.6
24	Mvk (mevalonate kinase)	1	102	87
25	Spink4 (serine peptidase inhibitor, Kazal type 4)	1	67.4	89.8
26	Spink4 (serine peptidase inhibitor, Kazal type 4)	2	67.8	81.3
27	Spink4 (serine peptidase inhibitor, Kazal type 4)	3	98.8	110
28	Slc52a2	1	87.2	67.8
29	Slc52a2	2	74.6	39.3
30	Or10g3b (olfactory receptor family 10 subfamily G member 3B)	1	35.2	30.8
31	Or10g3b (olfactory receptor family 10 subfamily G member 3B)	2	85	93.6
32	Or10g3b (olfactory receptor family 10 subfamily G member 3B)	3	58.4	55.7

Entries listed so far marked active, once more:
gene symbol	reagent no.	GFP, % of control	viability (ATP), % of control
Slc4a9	2	136 (active)	102
Cntf (ciliary neurotrophic factor)	2	125 (active)	92

Continued:
no.	gene symbol	reagent no.	GFP, % of control	viability (ATP), % of control
33	Dgkb (diacylglycerol kinase, beta)	1	66.1	69.5
34	Scrn1 (secernin 1)	1	62.9	73.1
35	Scrn1 (secernin 1)	2	56.8	49.8
36	Scrn1 (secernin 1)	3	81.1	93.4
37	Tmem81 (transmembrane protein 81)	1	89.9	84.4
38	Tmem81 (transmembrane protein 81)	2	134 (active)	117
39	Tmem81 (transmembrane protein 81)	3	112	94.2
40	Psma5 (proteasome subunit alpha 5)	1	46.3	65
41	Psma5 (proteasome subunit alpha 5)	2	5.71	2.84
42	Psma5 (proteasome subunit alpha 5)	3	46.2	21.6
43	Mrm2 (mitochondrial rRNA methyltransferase 2)	1	84.1	104
44	Mrm2 (mitochondrial rRNA methyltransferase 2)	2	58.5	65.9
45	Mrm2 (mitochondrial rRNA methyltransferase 2)	3	57.9	69.4
46	Sgip1 (SH3-domain GRB2-like (endophilin) interacting protein 1)	1	87.1	72.6
47	Sgip1 (SH3-domain GRB2-like (endophilin) interacting protein 1)	2	76.8	126
48	Sgip1 (SH3-domain GRB2-like (endophilin) interacting protein 1)	3	126 (active)	81.2
49	Ets2 (Ets proto-oncogene 2, transcription factor)	1	82.6	81.9
50	Ets2 (Ets proto-oncogene 2, transcription factor)	2	107	100
51	Ets2 (Ets proto-oncogene 2, transcription factor)	3	100	108
52	Prss44 (serine protease 44)	1	58	38.3
53	Prss44 (serine protease 44)	2	87.9	107
54	Prss44 (serine protease 44)	3	82.9	96.4
55	Ufm1 (ubiquitin-fold modifier 1)	1	69.1	54.1
56	Ufm1 (ubiquitin-fold modifier 1)	2	58.1	74.4
57	Ufm1 (ubiquitin-fold modifier 1)	3	62.6	68.9
58	Znhit3 (zinc finger, HIT type 3)	1	209 (active)	73.1
59	Znhit3 (zinc finger, HIT type 3)	2	102	69.4
60	Znhit3 (zinc finger, HIT type 3)	3	64.7	92.8
61	Polh (polymerase (DNA directed), eta (RAD 30 related))	1	148 (active)	113
62	Polh (polymerase (DNA directed), eta (RAD 30 related))	2	68.6	76
63	Nbr1 (NBR1, autophagy cargo receptor)	1	167 (active)	110
64	Nbr1 (NBR1, autophagy cargo receptor)	2	64.3	86.8
65	Nbr1 (NBR1, autophagy cargo receptor)	3	53.2	43.7
66	BC107364 (cDNA sequence BC107364)	1	42.9	68.5
67	BC107364 (cDNA sequence BC107364)	2	51.8	55.1
68	BC107364 (cDNA sequence BC107364)	3	101	92.9
69	Dffb (DNA fragmentation factor, beta subunit)	1	103	78.4
70	Dffb (DNA fragmentation factor, beta subunit)	2	72.9	55.9
71	Dffb (DNA fragmentation factor, beta subunit)	3	60.1	74.3
72	Oaf (out at first homolog)	1	104	79.3
73	Oaf (out at first homolog)	2	156 (active)	88.1
74	Oaf (out at first homolog)	3	122 (active)	93
75	Spg21 (SPG21, maspardin)	1	84.3	89.4
76	Spg21 (SPG21, maspardin)	2	92.6	136
77	Spg21 (SPG21, maspardin)	3	113	115
78	Timm21 (translocase of inner mitochondrial membrane 21)	1	44.6	41.7
79	Timm21 (translocase of inner mitochondrial membrane 21)	2	53.1	34.4
80	Timm21 (translocase of inner mitochondrial membrane 21)	3	77.7	81.6
81	Jmjd4 (jumonji domain containing 4)	1	93.3	56.9
82	Jmjd4 (jumonji domain containing 4)	2	64.6	83
83	Jmjd4 (jumonji domain containing 4)	3	76.7	109
84	Clca3a1 (chloride channel accessory 3A1)	1	67.8	80
85	Clca3a1 (chloride channel accessory 3A1)	2	32.2	17.3
86	Clca3a1 (chloride channel accessory 3A1)	3	77.3	81.1
